Among all 53,000 sequences or so, about 3,700 (7%) were called active.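 Rule for the calls: active = gene knockdowns whose robust z-score for IL-1 alpha signal is at least 2 or at most -2, so actives lie on both sides; inactive = the rest.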 This is one part of the list.

The nature of the test: Components of the Cytosolic LPS Sensing Pathway: Gene Identification via Genome-wide siRNA Screen.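 Note: robust z of the log signal after scaling to non-targeting control siRNA wells of the plate.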 Conditions: RAW264.7 macrophages, IL-1a HTRF, actives lie on both sides, screened at 100 nM (by protocol), cells primed 5 h with Pam3CSK4 first. In a few lines: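 Using IL-1a HTRF as read-out, the screen measured release from RAW264.7 cells after 48h siRNA knockdown (100 nM), 5 h Pam3CSK4 priming and 24 h cytosolic LipidA. Values were expressed relative to negative-control wells as robust z-scores.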
A general note: Time-resolved FRET reads energy transfer from a long-lived donor to a nearby acceptor.
As for GGACUGCUACAAAGAACAATT against Scgb2b24, the z-score is inactive: -0.207.

As to GGAAAUGACCCACUCGUGGTT against Aff1, the z-score was inactive: 0.118.

GGCCCAUAAGUCCUUCACCTT against Ttc41: the z-score is inactive: 0.855.

GGCAGAUUGACAGUUUACCTT against Trav7d-6: the z-score is inactive: 0.196.

With GGUUAUCCAGAGAGUGCAUTT against Arl4d, the z-score is inactive: 1.01.

As for GGACUUUUAUUUUGUUAGCTT against Pacsin2, the z-score is inactive: -0.256.

GGACUUGGACAAACAUCAATT against Cox7a1: the z-score is inactive: -0.93.

For the sequence GGUUUGAGAAUGUUUUAGGTT against Avpr1a, the z-score was inactive: 0.00969.

Regarding GGAGCAUUAACUGUCUUGATT against Olfr356, the z-score was inactive: -0.679.

For GCAUUUUGAGAAAGCAAUUTT against Rmdn1, the z-score was inactive: -0.0494.

Regarding GAAUGAAGUGUUAUCCUGUTT against Tma7, the z-score is inactive: -0.586.

For GGAUCCACUAAUGUGAAAATT against Trim39, the z-score is inactive: -0.445.

GCACCUAGCAAAAUGCCUATT against Sntn: the z-score is inactive: -0.567.

In the case of GCCUCUGCAUAUGAUUACGTT against Myom1, the z-score is inactive: 1.24.

Take GGAUCAAUCGUUUUGCUUGTT against Epb41l2: the z-score is inactive: -0.117.

Regarding CCAACUGUGAUCAGUGAGCTT against Shank3, the z-score is inactive: -0.387.

Take GCGGAUGCCAGAUGAUUAUTT against Fcf1: the z-score is inactive: 0.241.

Regarding GGAACUUGAACUAAAAAUGTT against Eaf1, the z-score was active: 2.5.

Take GCUAAGAGUCUUUGGAACGTT against Maff: the z-score was inactive: 0.447.

On to GCUCUGAGUAUUGAUGGCCTT against Hcfc1r1, for which the z-score was inactive: -0.819.

With GGUGAACUUGAAGUGCCUCTT against Clec3b, the z-score is inactive: 0.946.

Take CCUCAUGUCUACAAAGUUATT against Gvin1: the z-score is inactive: -1.14.

Consider GGAGAAAUAGGAUGGUCACTT against Zfp46, for which the z-score was inactive: 0.689.

For the sequence GGAGAUCUACUUGAAGUUATT against Kdm5d, the z-score is inactive: 1.56.

As to GGUUUGAGAAUUUGACUUCTT against Plekhh3, the z-score is inactive: -0.678.

For the sequence “GGUGGCUACCUGGUGAUCUTT against A730049H05Rik”, the z-score was inactive: -1.76.

Take CCGUGUGGUUAAAAACUUUTT against Nktr: the z-score was inactive: 0.535.

Turning to CCUUAGUCGCUUUGUAUGGTT against Drp2, the z-score was inactive: 0.695.

Take CGACUCCAUGUGGACUUAUTT against Gca: the z-score was inactive: -1.16.

Consider GGUGUGAAGGAGAAGUUCATT against Atp6v1a, for which the z-score was active: 2.01.

Consider GGAGCCGUACAUCUUACACTT against Abhd1, for which the z-score was inactive: 0.33.

GGAAAACAUUGAAACAGUGTT against Wdr61: the z-score is inactive: 0.0679.

On to CGCCUUUUGCAUAUCAGAGTT against Defb39, for which the z-score was inactive: -0.8.

As for GCAUGCAGCGGUCCAUAUUTT against Cacna2d1, the z-score is inactive: 0.784.

For the sequence CCUUAAAGCACAGUUCAAUTT against Gca, the z-score was inactive: 1.27.

On to GGGAUCUACAUAUGAGGAATT against Tmem140, for which the z-score is inactive: -0.121.

Regarding GCUAGCUGGAAGACACAUATT against Seh1l, the z-score was inactive: 0.504.

In the case of CCGGGUCCGAGUAGAUUUUTT against Kmt2b, the z-score is inactive: 1.72.

As for CCGACCAUCCCAAGUUAAATT against Olfr199, the z-score is inactive: -1.31.

As for CCUUCUAGAUGUCUUAAGATT against Zfp41, the z-score was inactive: -0.244.

Consider GGAACUGGGUCCUCAUUCCTT against Capn1, for which the z-score is inactive: -1.6.

In the case of GGAGAUACCCUCGAGUAUATT against Lrrtm3, the z-score is inactive: -0.109.

For CGGAUGCGACAAAAAUCACTT against Il4, the z-score is inactive: 1.77.

For the sequence CCCAGAACGGGAUGAUUCUTT against Trex2, the z-score was active: 2.77.

Take GGUGACCUGUUCAGAACAUTT against Timm9: the z-score is inactive: 0.302.

With CCAUUCGGGUGAAGUUCCATT against Lsm7, the z-score was inactive: 1.52.

For the sequence GGAGCAACAACUUAAAUGUTT against Slc16a4, the z-score was inactive: 1.18.

Regarding GGUAAAGACUGGAUGGCUATT against Art5, the z-score is active: 2.14.

On to GGAGAAAGACCAUUACUGUTT against Ly6e, for which the z-score is inactive: 1.63.

Take GGGAGACAGUGAUGGUUACTT against Ip6k1: the z-score was inactive: 1.11.

As to GGGUCCAAAAGAAAAGUGUTT against Zc2hc1c, the z-score was inactive: 0.784.

Consider GGCAUAAACCUUCUUGCUCTT against Ccl22, for which the z-score was inactive: -0.221.

On to GGACUAUGCCAGGAAACUGTT against Pgls, for which the z-score is inactive: -0.0402.

Consider GCCACUGAGAUGUGACGAATT against Pbp2, for which the z-score is inactive: 0.899.

Consider GAAUCGGAGGACAAAAUACTT against Emx1, for which the z-score is inactive: 0.368.

For the sequence GGUGAAGUUGAAUGGAAGUTT against Crebzf, the z-score was inactive: -0.9.

As for “GGAGGCUAUCAGAAGCAUCTT against C130021I20Rik”, the z-score was inactive: 0.762.

For GGGCAUUUUAACCAAAUGATT against Marchf11, the z-score was inactive: 0.544.

GCCGUUUUAUUCACGUGAATT against Erp27: the z-score was inactive: -1.36.

Turning to GGCACUCCUCUUUGUUUUCTT against Olfr414, the z-score is inactive: -1.82.

Take GGGUUCUCUUGAGUUACAGTT against Zfp60: the z-score was inactive: -1.56.

As to GGCAGUGAAAGAACUGGACTT against Serpina1b, the z-score was inactive: -0.181.

GCACUUUACCCACUGAACCTT against Brat1: the z-score is inactive: -0.522.

As for GCUCUGCUCUUCUGAAGCATT against Dohh, the z-score is active: -2.42.

As to GGACAAGGUCAGCAGUAUGTT against Ss18l1, the z-score is inactive: -0.0498.

In the case of GGUUUUACGAAGCUUACAATT against Myo7a, the z-score is inactive: 0.655.

For CGAUUAACCCACUCUUGUCTT against Mapkapk2, the z-score was inactive: -0.66.

For CCAAAAGGACCAAUCAGUUTT against Slc1a2, the z-score is inactive: 0.688.

As to GUUCCACUACUUCUGCUCCTT against Olfr583, the z-score was inactive: 0.41.

Take GGUUCUAGAAAACAUGAACTT against Tdrd1: the z-score was inactive: 1.13.

As to GCGUGUGUGCCUCUACUUGTT against Naprt, the z-score is inactive: 0.218.

Consider GGUUCAAGCAGAACAAGAATT against Fam220a, for which the z-score was inactive: -0.727.

In the case of GAGACUAGACUAACCCUGUTT against Galr3, the z-score is inactive: -1.16.

As to GGUGUUUUUUAUCAGUAUGTT against Adamtsl4, the z-score was inactive: -1.11.

In the case of GGAUCAGAUUAUUGAGAUGTT against Rexo2, the z-score is inactive: -1.41.

Turning to GGGAGUUUGACAUCUUCUATT against Lrrk1, the z-score was inactive: -0.569.

Consider GGAAGUGUUCACCCGAUUCTT against Ckb, for which the z-score was inactive: -0.0701.

As for GUUUCUAGCUACCUUCCAGTT against Aqp11, the z-score was inactive: 1.88.

As to GGAGAUACCUUAGAAGAUATT against Dlg2, the z-score was inactive: -0.074.

With CCAUGCAGUACUUCAUCUUTT against Olfr1440, the z-score is inactive: 0.482.

For UGAAAAGAGCAAUGAAGAATT against Olfr177, the z-score was inactive: -0.36.

GGCUCAAGGCAUUGAAGGATT against Psmg3: the z-score was inactive: -1.6.

As to GGAGAUCCUGGCAAAAUACTT against Sgsm3, the z-score was inactive: -0.604.

Take CACGGGCAUCCUUGACUCCTT against Mbp: the z-score was inactive: -0.824.

Consider GGGAUGACCUGCCAUUCAUTT against Atp7a, for which the z-score is active: 3.47.

Regarding GGCCAGUUUAAACCAGUCUTT against Frmd6, the z-score is inactive: 0.583.

Take “GUGGUUAUCCUGUUUUUUGTT against Olfr1273-ps”: the z-score is inactive: 0.291.

Take GGAGUUUUAGGAUAUUCGATT against Adcyap1r1: the z-score is inactive: 0.29.

Turning to GCUCUCCCAUCUUUUCUAUTT against Lenep, the z-score was inactive: -1.5.

For GGAGCUUCCUGCUAUUUUATT against Rxylt1, the z-score is inactive: 0.766.

As for CCUCAGAGCCACGACAUUUTT against Zfp28, the z-score was inactive: 0.357.

Consider GGGUCUAUUUAUUUAGUAGTT against Alg8, for which the z-score is inactive: 0.395.

As to GGAACUUACACAUUUGUUCTT against Tnfsf13b, the z-score was inactive: -1.11.

As for GCAAAGCAUUGCUCUGAGGTT against Msx1, the z-score was inactive: -0.619.

CCACUGUUUAAUAACCCUATT against Sc5d: the z-score is inactive: 0.117.

Take GGUUCUUCGAAGCAAUAGCTT against Sphkap: the z-score was inactive: -0.973.

For the sequence CCUCAUGACCCGAAAAGAGTT against Patl2, the z-score is inactive: -0.251.

For the sequence GGUUUGUAUGCUAUAGUUUTT against Cldn11, the z-score was inactive: 0.922.

In the case of GGCUGCAUUUAUUGAUAACTT against Kyat3, the z-score is inactive: 1.77.

As for GGGACACAUACUGUAGUAUTT against Pspc1, the z-score was inactive: 0.00343.

In the case of GGAAAGCUCACUAUUGUAUTT against Nrbp2, the z-score is inactive: -1.02.

Take GCCAGUAGAUUACUUCAUUTT against Cnnm3: the z-score was inactive: 0.0391.

Turning to GGUCCCAAGAAUUUUUAAATT against Ndc80, the z-score was inactive: -1.92.

As for GGCUUGAGUACGAAUGGGATT against Ano5, the z-score is inactive: -0.24.

In the case of GCUGACGGACGAAUGCUACTT against Sema6c, the z-score is inactive: 0.81.

For the sequence GGUGGAGACAGAAAUCCAATT against Amot, the z-score is inactive: 0.23.

Regarding GGACAACUGCUACGAAGUGTT against Zfp366, the z-score is inactive: -0.818.
